In ChEMBL document CHEMBL5584300, “Bioinformatic Approaches Identify Hybrid Antibiotics against Tuberculosis via d-Amino Acid-Activating Adenylation Domains from Cordyceps militaris” (J Nat Prod, 2024):

System: Escherichia coli
Assay: Antibacterial activity against Escherichia coli ATCC 25922 assessed as reduction in microbial growth incubated for 20 hrs by CLSI based broth microdilution method
Assay type: functional

CC1(C)S[C@@H]2[C@H](NC(=O)[C@H](N)c3ccccc3)C(=O)N2[C@H]1C(=O)O [AMPICILLIN]
MIC: 8 µg/mL
